Results as given in the supplement of paper PMC4683952.
The list shows a part of the results. Rule as the data show it: active = 2 or more and inactive = the rest. Single values are uncertain here, since repeats match poorly.

test system: Lgr5 (MarsCy1-Lgr5-EGFP, U2OS); test: cell-surface Lgr5 expression (SCi1 fluorescence, background-subtracted) relative to WT DMSO (fold of DMSO control); higher = more Lgr5 at the plasma membrane; details: U2OS MarsCy1-Lgr5-EGFP stable; treatment time: overnight; library: ActiProbe-5K (TimTec); 25 µM

cell-surface Lgr5 expression, inactive:
[Br-].[Br-].c1cc[n+](CC[n+]2ccccc2)cc1 1.19
COC(=O)n1nc(C)c(Br)c1C 0.794
CC1(C)CC(=O)C(C(C2=C(O)CC(C)(C)CC2=O)c2cccs2)C(=O)C1 (stereo unspecified) 1.2
Sc1nnc(C2CCCCC2)n1/N=C\c1ccco1 1.06
CC(C)(C)c1ccc(/C=N/n2c(S)nnc2-c2ccc(C(C)(C)C)cc2)cc1 0.665
CCN1CCCC1Cn1c(C)c(C)c(C#N)c1N (stereo unspecified) 1.1
Cc1cc[nH]c1/C=C(/C#N)C(=S)S 0.858
O=C1CC2CS(=O)(=O)CC2N1c1ccccc1 (stereo unspecified) 1.08
N#Cc1c(Nc2ccc([N+](=O)[O-])cc2[N+](=O)[O-])sc2c1CCC2 1.31
CCc1ccc(-c2noc(N)c2C#N)s1 1.49
COC(=O)CCc1n[nH]c(=O)[nH]c1=O 1.32
Cc1ccc2c(c1)NC(C)(C)c1ss/c(=N/c3ccc(Cl)cc3Cl)c1-2 0.948
N#CC1(C#N)[C@H](C(=O)c2ccc(F)cc2)C12CC[C@H]1CO[C@@H]2O1 (stereo partly specified) 1.18
FC(c1nc2ccccc2[nH]1)C(F)(F)F (stereo unspecified) 0.932
Clc1cccc(-n2cnnn2)c1N1CCCC1 1.71
Oc1cc(C23CC4CC(CC(C4)C2)C3)n[nH]1 1.12
C=C(C)CC1Nc2ccccc2NC1CC(=C)C (stereo unspecified) 1.13
CCOC(=O)c1oc(C(=O)O)c2c1OCCO2 1.14
C=CCNc1nc(-c2ccccc2)nc(-n2ccnc2)n1 0.816
Cc1nc2sc3c(c2c(=O)n1N)CCC3 1.33
Oc1c2nnnc-2cnn1-c1ccccc1 1.15
c1cc(-c2cnn3nnnc3n2)cs1 0.932
O=S(=O)(c1ccccc1)N1CCCc2ccccc21 1.1
NC(=O)CSCCn1ccc2c1CCCC2 1.13
NCCOC12CC3CC(CC(C3)C1)C2 1.46
N#Cc1nc(N2CCCC2)nc(N(c2ccccc2)c2ccccc2)n1 1.86
C/C(=N/Nc1nnc(C)c(=O)[nH]1)C(=O)O 1.26
CC1=CC(C)(C)C(C#N)(C#N)C(N)=C1C#N 1.57
C(=N/c1ccc2[nH]ncc2c1)/c1ccc2c(c1)OCO2 0.331
Nc1nnc(SCC(=O)C2CC2)s1 1.16
O=C1OC(c2ccccc2F)=N/C1=C\c1cccc(F)c1 1.17

Some of these compounds in order of SMILES length, low to high:
cell-surface Lgr5 expression, inactive:
NC(=O)CSCCn1ccc2c1CCCC2 1.13
CCOC(=O)c1oc(C(=O)O)c2c1OCCO2 1.14
O=C1CC2CS(=O)(=O)CC2N1c1ccccc1 (stereo unspecified) 1.08
